PubChem BioAssay AID743121, NCATS | 2013
Assay: 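Genes whose silencing strengthens cell killing by camptothecin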 (primary screen). Cells: MDA-MB-231 cells, a human breast cancer line. Reagents: single siRNA against human genes, 20 nM siRNA (0.8 pmol per well). Duration: 120 h (drug added 48 h after transfection, read 72 h later). Challenge: camptothecin 20 nM (about EC30) for 72 h; vehicle 0.1% DMSO in parallel plates. Read-out: 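Cell viability by ATP luminescence (CellTiter-Glo) as % of non-targeting siRNA wells, and the log2 ratio of viability without drug over viability with camptothecin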. Direction: log2 vehicle/camptothecin viability: higher = stronger sensitisation to camptothecin. Hit rule: 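Each gene scored by redundant siRNA activity (RSA) over its individual siRNA ratios; a gene is called active at p < 0.001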.
In all, the deposit lists about 26,000 reagents; below is a random part of them. Over the whole deposit, 167 (0.63%) are marked active. 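Calls are per gene from RSA p-values that are not deposited; an individual active-marked siRNA can sensitise only weakly.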 A number with no mark means an inactive call. The numbers tell different reagents against one gene apart. Further read-outs or replicates are left out here.

{"target": "MS4A5 (membrane spanning 4-domains A5)", "siRNA no.": 1, "log2 vehicle/camptothecin viability": -0.363}
{"target": "MS4A5 (membrane spanning 4-domains A5)", "siRNA no.": 2, "log2 vehicle/camptothecin viability": -0.114}
{"target": "MS4A5 (membrane spanning 4-domains A5)", "siRNA no.": 3, "log2 vehicle/camptothecin viability": -0.0671}
{"target": "MS4A5 (membrane spanning 4-domains A5)", "siRNA no.": 4, "log2 vehicle/camptothecin viability": -0.0404}
{"target": "WSB1 (WD repeat and SOCS box containing 1)", "siRNA no.": 1, "log2 vehicle/camptothecin viability": -0.105}
{"target": "WSB1 (WD repeat and SOCS box containing 1)", "siRNA no.": 2, "log2 vehicle/camptothecin viability": 0.301}
{"target": "WSB1 (WD repeat and SOCS box containing 1)", "siRNA no.": 3, "log2 vehicle/camptothecin viability": -0.0492}
{"target": "WSB1 (WD repeat and SOCS box containing 1)", "siRNA no.": 4, "log2 vehicle/camptothecin viability": -0.233}
{"target": "COX10", "siRNA no.": 1, "log2 vehicle/camptothecin viability": -0.0794}
{"target": "COX10", "siRNA no.": 2, "log2 vehicle/camptothecin viability": -0.134}
{"target": "COX10", "siRNA no.": 3, "log2 vehicle/camptothecin viability": -0.0549}
{"target": "COX10", "siRNA no.": 4, "log2 vehicle/camptothecin viability": -0.433}
{"target": "TSTD2 (thiosulfate sulfurtransferase like domain containing 2)", "siRNA no.": 1, "log2 vehicle/camptothecin viability": -0.0175}
{"target": "TSTD2 (thiosulfate sulfurtransferase like domain containing 2)", "siRNA no.": 2, "log2 vehicle/camptothecin viability": -0.387}
{"target": "TSTD2 (thiosulfate sulfurtransferase like domain containing 2)", "siRNA no.": 3, "log2 vehicle/camptothecin viability": -0.0861}
{"target": "TSTD2 (thiosulfate sulfurtransferase like domain containing 2)", "siRNA no.": 4, "log2 vehicle/camptothecin viability": -0.0169}

3 successive reagents already listed, for reference:
{"target": "MS4A5 (membrane spanning 4-domains A5)", "siRNA no.": 2, "log2 vehicle/camptothecin viability": -0.114}
{"target": "MS4A5 (membrane spanning 4-domains A5)", "siRNA no.": 3, "log2 vehicle/camptothecin viability": -0.0671}
{"target": "MS4A5 (membrane spanning 4-domains A5)", "siRNA no.": 4, "log2 vehicle/camptothecin viability": -0.0404}

More entries follow:
{"target": "SMURF1 (SMAD specific E3 ubiquitin protein ligase 1)", "siRNA no.": 1, "log2 vehicle/camptothecin viability": -0.205}
{"target": "SMURF1 (SMAD specific E3 ubiquitin protein ligase 1)", "siRNA no.": 2, "log2 vehicle/camptothecin viability": -0.132}
{"target": "SMURF1 (SMAD specific E3 ubiquitin protein ligase 1)", "siRNA no.": 3, "log2 vehicle/camptothecin viability": 0.0678}
{"target": "SMURF1 (SMAD specific E3 ubiquitin protein ligase 1)", "siRNA no.": 4, "log2 vehicle/camptothecin viability": 0.0159}
{"target": "CAMK1G (calcium/calmodulin dependent protein kinase IG)", "siRNA no.": 1, "log2 vehicle/camptothecin viability": -0.315}
{"target": "CAMK1G (calcium/calmodulin dependent protein kinase IG)", "siRNA no.": 2, "log2 vehicle/camptothecin viability": 1.5}
{"target": "CAMK1G (calcium/calmodulin dependent protein kinase IG)", "siRNA no.": 3, "log2 vehicle/camptothecin viability": -0.355}
{"target": "CAMK1G (calcium/calmodulin dependent protein kinase IG)", "siRNA no.": 4, "log2 vehicle/camptothecin viability": -0.605}
